The target of the data set is T1, His6-NhaR (UniProt P0A9G2).
T1 sequence (looked up, limits assumed): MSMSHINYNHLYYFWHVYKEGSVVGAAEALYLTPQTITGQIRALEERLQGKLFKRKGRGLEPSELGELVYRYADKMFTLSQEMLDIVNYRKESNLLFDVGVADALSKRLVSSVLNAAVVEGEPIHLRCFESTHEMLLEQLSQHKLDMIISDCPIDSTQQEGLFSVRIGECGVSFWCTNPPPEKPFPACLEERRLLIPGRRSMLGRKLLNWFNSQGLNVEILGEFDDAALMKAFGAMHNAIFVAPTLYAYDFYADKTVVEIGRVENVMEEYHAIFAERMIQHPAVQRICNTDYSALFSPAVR
Description: EMSA. The note with it: up to 600 nM NhaR; NhaR EMSA: 20 mM Tris-HCl pH 8.0, 100 mM NaCl, 1 mM DTT, 10% glycerol, 125 ug/mL BSA, 10 ng DNA in 10 uL, 25 C 20 min; recombinant protein; protein details: N-terminal His6 (pET28a NdeI-SalI). Background: In EMSA bound probe runs differently from free probe, usually more slowly.

The exact form of at least one protein or probe is not confirmed. Negatives hold for the conditions tested. Where a protein sequence is shown, tags need not be part of it.

Regarding “AATGACCTTTGGATAACCCTTTTTATGCTCCGTGAAAGCGATCACAAAGGGACTCTGCAATACTTGTTTGCG (double strand) [PbipA]”, the binding result is “no binding”.

(Values after paper PMC10157491.)
